Results deposited as PubChem BioAssay AID504784 (Drosophila RNAi Screening Center, 2011)
The screen tested about 17,000 reagents; below is a random part of those with a known target gene and a result. 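Each column is one replicate's B-score; the combined score over replicates was not deposited, so single values may mislead.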 Names joined by + are all predicted targets of the reagent.

Purpose: 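Fly genes whose silencing alters how much lipid cells keep in droplets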 (primary screen)
Cells: Drosophila Kc167 embryonic cells
Reagent: long dsRNA against Drosophila genes, about 250 ng dsRNA per well
Time to read-out: 4 days
Treatment: cells fed 400 µM oleic acid bound to BSA
Read-out: 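Cells imaged and segmented; ratio of lipid droplet area to nuclear area, log-transformed, then normalised as a B-score over the screen; higher means more stored lipid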
Reading the numbers: droplet/nuclear area B-score: higher = more stored lipid (overstorage)

gene knocked down	DRSC id	droplet/nuclear area B-score, replicate 1	droplet/nuclear area B-score, replicate 2	droplet/nuclear area B-score, replicate 3
CG15296	DRSC17983	0.356	-0.859	-0.868
CG11449	DRSC11662	-0.195	0.67	
G9a	DRSC18619	-1.12	0.582	
Gr98a (Gustatory receptor 98a)	DRSC14719	2.01	2.77	
gcl (germ cell-less)	DRSC07623	1.24	-0.838	
CG10462	DRSC02058	1.08	-1.45	
CG9029	DRSC03129	0.0473	-0.133	
CG32111 (retired record)	DRSC09203	-0.00497	4.19	
lncRNA:noe (long non-coding RNA:noe)	DRSC22747	-0.361	-1.08	
CG3520	DRSC04383	-2.9	0.476	
Hip14 (Huntingtin-interacting protein 14)	DRSC10570	-1.07	1.96	2.09
Odc1 (Ornithine decarboxylase 1)	DRSC07482	-1.3	-0.585	
Ak3 (Adenylate kinase 3)	DRSC16075	-0.255	0.0355	
eIF6 (eukaryotic translation initiation factor 6)	DRSC04674	-0.159	0.24	
CG13775	DRSC02279	-0.116	1.02	
Dna2 (DNA replication helicase/nuclease 2)	DRSC18254	1.71	0.106	0.311
mre11 (meiotic recombination 11)	DRSC03570	1.2	0.906	-0.502
mre11 (meiotic recombination 11)	DRSC22628	-0.61	-1.8	
CG14736	DRSC14956	-0.659	-0.0254	
CG31010	DRSC14006	3.03	0.641	
Ance (Angiotensin converting enzyme)	DRSC01865	0.0737	0.108	
tko (technical knockout)	DRSC18844	0.895	1.82	
sav (salvador)	DRSC14681	-1.68	-0.736	
sav (salvador)	DRSC14682	-0.562	0.595	
Vha14-1 (Vacuolar H[+] ATPase 14kD subunit 1)	DRSC07571	-0.082	-0.832	
p-cup (presidents-cup)	DRSC19513	1.26	1.44	
CG31344	DRSC16069	-1.09	0.507	
Rm62	DRSC12365	0.653	7.59	
CG7296	DRSC03042		-1.77	2.83
CG7296	DRSC22343	3.31	-1.78	
COX8 (Cytochrome c oxidase subunit 8)	DRSC11814	5.04	7.09	
CG13807	DRSC08342	1.17	-0.47	
Osi6 (Osiris 6)	DRSC12128	0.0464	-1.13	
Eip75B (Ecdysone-induced protein 75B)	DRSC11161	-2.52	2.6	1.35
Eip75B (Ecdysone-induced protein 75B)	DRSC23047	-0.711	1.36	
Inx3 (Innexin 3)	DRSC14857	-1.66		
jhamt (juvenile hormone acid methyltransferase)	DRSC01985	1.66	0.371	
dbr (debra)	DRSC00274	-0.0303	-1.41	
mey (morpheyus)	DRSC14468	0.00751	0.658	
mAChR-B (muscarinic Acetylcholine Receptor, B-type)	DRSC16345	2.88	3.06	
atk (artichoke)	DRSC11418	-0.818	1.68	-0.00719
atk (artichoke)	DRSC11769	-0.0282	0.204	
Cerk (Ceramide kinase)	DRSC12285	-2.45	-0.237	
dah (discontinuous actin hexagon)	DRSC20320	0.352	-0.0258	0.433
CG31952	DRSC00428	-0.62	-0.536	
CG31952	DRSC21997	0.416	-1.59	
RpL35A (Ribosomal protein L35A)	DRSC12302	1.32	2.83	
bchs (blue cheese)	DRSC03126	1.52	-1.73	
CG4619	DRSC02764	-0.0179	0.794	
CG15152	DRSC02453	0.742	-1.55	
CG5435	DRSC02860	-0.526	-1.68	
CR33319 (pseudo)	DRSC01826	3.05	2.85	
noi (noisette)	DRSC12383	0.0118	0.0922	
Kdm2 (Lysine demethylase 2)	DRSC14286	0.0344	13.8	
Naa20B (N(alpha)-acetyltransferase 20 B)	DRSC21442	1.41	0.204	
CG33331 + CG33332	DRSC22928	-0.0733	-0.945	
Rrp46	DRSC15537	0.00492	-0.0143	
CG30414	DRSC04372	-3.4	3.5	
CG8312	DRSC16406	-0.674	-2.36	
Orc2 (Origin recognition complex subunit 2)	DRSC16776	-5.44	3.93	
Cdk12 (Cyclin-dependent kinase 12)	DRSC11836	2	5.09	1.57
Cdk12 (Cyclin-dependent kinase 12)	DRSC23323	1.95	-0.157	
Prp8 (pre-mRNA processing factor 8)	DRSC07293	5.94	-2	
CG2811	DRSC04318	-0.326	3.08	
CG9521	DRSC20196	0.0984	-1.68	
CG4461	DRSC10423	1.45	0.411	
dmrt11E (doublesex-Mab related 11E)	DRSC19715	0.761	0.738	0.277
Shawl (Shaw-like)	DRSC02209	2.43	0.0931	
Shawl (Shaw-like)	DRSC02748	-0.222	-0.439	
Ns1 (Nucleostemin 1)	DRSC15529	0.0973	0.1	
CG4733	DRSC15634	0.8	0.979	
Tpl94D (Transition protein-like 94D)	DRSC13593	0.0353	-0.916	
CG2961	DRSC18246	-2.09	-0.36	-0.248
CG30273	DRSC22059	-0.232	-0.0128	
reb (rebuf)	DRSC06308	-0.0386	0.774	
Agps (Alkylglycerone phosphate synthase)	DRSC05984	1.77	0.0298	
CG14454	DRSC11711	-0.478	-0.767	
Cpr78Ca (Cuticular protein 78Ca)	DRSC11651	1.93	0.852	
Pgant7 (Polypeptide N-Acetylgalactosaminyltransferase 7)	DRSC19991	0.327	0.407	
CG9098	DRSC03136	0.75	-0.171	-0.077
CG9098	DRSC22501	1.28	0.0438	
Cap-D2 (CAP-D2 condensin subunit)	DRSC15401	0.372	-1.36	
CG8191 + CG12379	DRSC19451	-0.11		
CG42322	DRSC15112	1.24	-0.151	
CG42322	DRSC15113	0.0738	-1.48	
CG42322	DRSC15114	0.927		
bsf (bicoid stability factor)	DRSC02035	0.0367	-0.902	
Pif1 (Pif1 DNA helicase)	DRSC00582	-0.573	-0.411	
CG14511	DRSC14863	0.213	-0.871	
RhoGAP16F (Rho GTPase activating protein at 16F)	DRSC20025	-0.13	-0.319	
fd3F + CG42499 (retired record)	DRSC18160	0.241	0.59	
fd3F + CG42499 (retired record)	DRSC18161	0.624	2.1	
RpL12 (Ribosomal protein L12)	DRSC04344	7.69	9.76	
ATPsyndelta (ATP synthase, delta subunit)	DRSC18248	-0.4	1.29	1.74
rudhira	DRSC19821	-0.00208	-1.51	1.47
rudhira	DRSC22111	2.14	-1.32	
rudhira	DRSC23144	1.09	1.89	
tun (tungus)	DRSC05592	0.964	1.96	
tun (tungus)	DRSC07127	0.944	0.579	
CG33062	DRSC22195	-1.14	-1.55	
CG31817	DRSC01537	-1.06	-0.366	
CG31817	DRSC01538	-2.59	1.11	
CG31817	DRSC22476	-0.116	0.315	
CG8349	DRSC03083	1.09	0.442	
CG12693	DRSC17882	0.0271	-0.723	

Individual results from the list:
Value for rudhira [DRSC22111] under “droplet/nuclear area B-score, replicate 1”: 2.14
CG8349 [DRSC03083], droplet/nuclear area B-score, replicate 1 = 1.09
For “droplet/nuclear area B-score, replicate 3”, CG15296 [DRSC17983] is entered as -0.868
Entry of CG9521 [DRSC20196] under “droplet/nuclear area B-score, replicate 2”: -1.68
Result of CG31817 [DRSC01537] in “droplet/nuclear area B-score, replicate 2”: -0.366
CR33319 (pseudo) [DRSC01826], droplet/nuclear area B-score, replicate 2 = 2.85
